Source: PMC8965486
Results are given in words; binding and its absence hold for the method and conditions named.

By UniProt entry, the sequences of proteins in these tests, tags left out.
UniProt P48059: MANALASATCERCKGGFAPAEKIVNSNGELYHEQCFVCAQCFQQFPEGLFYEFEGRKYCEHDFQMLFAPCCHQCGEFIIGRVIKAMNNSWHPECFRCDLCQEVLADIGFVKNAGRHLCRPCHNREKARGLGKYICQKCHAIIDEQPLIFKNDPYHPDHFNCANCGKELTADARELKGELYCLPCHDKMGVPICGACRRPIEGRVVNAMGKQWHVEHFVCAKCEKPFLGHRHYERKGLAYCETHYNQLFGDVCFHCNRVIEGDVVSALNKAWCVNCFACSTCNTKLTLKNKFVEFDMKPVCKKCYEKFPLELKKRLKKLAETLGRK

Target: GST fusion protein containing NEDD4 HECT domain (UniProt P46934)
Assay: pull-down; GST or GST-fusion proteins bound to Glutathione-Sepharose beads incubated with recombinant MBP-PINCH-1 at 4°C overnight; washed 3 times with PBS containing 1% Triton X-100; WB with anti-His Ab; both purified

## maltose binding protein (MBP)-His-tagged PINCH-1 protein (from UniProt P48059 1-325)
  binding: no binding
